{
  "source": "paper PMC12040169",
  "about": "(PLOS Biology, 2025)",
  "note": "The list shows a part of the results.",
  "data": [
    {"tested_on": "T1, CTL2-GFP (C. trachomatis L2/434/Bu, GFP-expressing)", "T1 construct": "L2/434/Bu, GFP-expressing", "set-up": "species or system HeLa; Intracellular C. trachomatis growth in HeLa cells, bulk GFP fluorescence relative to DMSO", "conditions": "bulk GFP, single well; 28.5 h, 10 µM; inhibitor", "units": {"% of control remaining": "%"}, "values": [
      {"smiles": "CCN(CC)C(=O)CN(CCc1ccc(OC)c(OC)c1)C(=O)NCCc1c[nH]c2ccccc12", "note": "[CBK158741]", "% of control remaining": 111.526},
      {"smiles": "O=C(Nc1scc(-c2ccc(-c3ccccc3)cc2)c1C(=O)O)c1ccco1", "note": "[CBK266156]", "% of control remaining": 95.1841},
      {"smiles": "c1ccc(-c2ccc(COc3cncc(N4CCNCC4)n3)s2)nc1", "note": "[CBK008960G]", "% of control remaining": 143.102},
      {"smiles": "Cc1nc2c(OCCOc3ccc(F)cc3)cccn2c1N(C)C(=O)CCC1CCCC1", "note": "[CBK147198]", "% of control remaining": 162.771},
      {"smiles": "CC1CCCCC12NC(=O)N(Cc1nnc(-c3cccs3)o1)C2=O", "note": "(centres unmarked) [CBK306205]", "% of control remaining": 129.624},
      {"smiles": "CC(NC(=O)N1CCC1)c1cccc(S(N)(=O)=O)c1", "note": "(centres unmarked) [CBK306357]", "% of control remaining": 89.2509},
      {"smiles": "COc1ccc(Nc2ccc(-c3cccc(N(C)C)c3)cn2)cn1", "note": "[CBK037588]", "% of control remaining": 181.494},
      {"smiles": "C=CCOc1ccc(-c2nnn(CC(=O)O)n2)cc1", "note": "[CBK269772]", "% of control remaining": 126.393},
      {"smiles": "O=C(O)CCCCCNc1ccc(C(F)(F)F)cc1[N+](=O)[O-]", "note": "[CBK286707]", "% of control remaining": 130.599},
      {"smiles": "CCOC(=O)C1(Cc2cc(-c3ccccc3)no2)CCNCC1", "note": "[CBK284924]", "% of control remaining": 111.465},
      {"smiles": "CN1CCN(C(=O)CC[C@@H]2CNC(=O)[C@@H]3C[C@H](NC(=O)c4cccs4)CN23)CC1", "note": "[CBK289013]", "% of control remaining": 122.809},
      {"smiles": "COc1cc(NS(=O)(=O)c2ccc(NC(=O)c3cccc4ccccc34)cc2)nc(OC)n1", "note": "[CBK262465]", "% of control remaining": 124.357},
      {"smiles": "O=C(CSc1nc[nH]n1)Nc1ccccc1[N+](=O)[O-]", "note": "[CBK265005]", "% of control remaining": 107.177},
      {"smiles": "COC(=O)c1cc(-c2cccnc2)[nH]n1", "note": "[CBK268945]", "% of control remaining": 105.568},
      {"smiles": "CCN1CCN(Cc2c(C)nc3ccc(C)cc3c2O)CC1", "note": "[CBK263699]", "% of control remaining": 129.298},
      {"smiles": "CSc1ccc(S(=O)(=O)NCCSCc2ccc(C)cc2)cc1", "note": "[CBK268510]", "% of control remaining": 95.8886},
      {"smiles": "O=C1CNC(=O)C2(C/C=C/C[C@H]3COCC[C@@H]3N1)CCN(CC(=O)N1CCCCC1)CC2", "note": "[CBK292137]", "% of control remaining": 95.5708},
      {"smiles": "CN1[C@@H](CCC(=O)N2CCc3ccccc32)CNC(=O)[C@@H]2[C@H]1CCN2Cc1ccc(O)cc1", "note": "[CBK289021]", "% of control remaining": 131.76},
      {"smiles": "Cc1nc2ccc(C(=O)NC3CCCOC3)cc2s1", "note": "(centres unmarked) [CBK282509]", "% of control remaining": 131.065},
      {"smiles": "CC(=O)NC(c1nccs1)C1CCCN(C(=O)C2CCCCC2)C1", "note": "(centres unmarked) [CBK282170]", "% of control remaining": 100.286},
      {"smiles": "O=C(Cn1cccc(C(=O)Nc2ccc(F)cc2)c1=O)Nc1nc2c(s1)CCCCC2", "note": "[CBK286055]", "% of control remaining": 120.461},
      {"smiles": "COc1cc2[nH]c(=O)c(C(=O)NCCc3ccc(Cl)cc3)c(O)c2cc1OC", "note": "[CBK159986]", "% of control remaining": 71.3277},
      {"smiles": "COCC(=O)N1CCC2(C/C=C/C[C@H]3COCC[C@@H]3NC(=O)CNC2=O)CC1", "note": "[CBK292158]", "% of control remaining": 104.585},
      {"smiles": "NC(=O)c1ccc(NC(=O)COc2ccccc2Cl)cc1", "note": "[CBK262961]", "% of control remaining": 97.0607},
      {"smiles": "NS(=O)(=O)c1ccc(NC(=S)N2CCN(CCO)CC2)cc1", "note": "[CBK265891]", "% of control remaining": 121.757},
      {"smiles": "O=C(O)c1cc(C(=O)O)cc(N2C(=O)c3ccc(-c4ccc5c(c4)C(=O)N(c4cc(C(=O)O)cc(C(=O)O)c4)C5=O)cc3C2=O)c1", "note": "[CBK261331]", "% of control remaining": 100},
      {"smiles": "O=c1[nH]cc(S(=O)(=O)Nc2ccccc2)c(=O)[nH]1", "note": "[CBK287703]", "% of control remaining": 137.693},
      {"smiles": "Fc1ccc(SCCc2ccccn2)cc1", "note": "[CBK026491G]", "% of control remaining": 118.427},
      {"smiles": "O=C(NCc1cccs1)OCc1ccccc1", "note": "[CBK008074]", "% of control remaining": 133.506},
      {"smiles": "Nc1nc2c(cc1C(=O)NCc1ccccc1)CN(C(=O)CCCc1ccc(F)cc1)CC2", "note": "[CBK285887]", "% of control remaining": 100.442},
      {"smiles": "Cc1ccc(C(=O)N/C(=C\\c2cccc([N+](=O)[O-])c2)C(=O)NC2CCCCC2)cc1", "note": "[CBK261407]", "% of control remaining": 115.148},
      {"smiles": "O=c1[nH]c2ncc(-c3cccc4ncccc34)nc2n1CCCO", "note": "[CBK065060]", "% of control remaining": 142.832},
      {"smiles": "Cc1cc(=O)n2c(c1C#N)SCC2", "note": "[CBK027807]", "% of control remaining": 122.627},
      {"smiles": "COc1ccc(C(=O)NCC(=O)NCCOC(=O)c2c(-c3c(F)cccc3Cl)noc2C)cc1", "note": "[CBK007386]", "% of control remaining": 125.246},
      {"smiles": "CN(C)C(=O)c1ccc(Cn2nc(NC(=O)OCc3ccccc3)c3ccccc32)cc1", "note": "[CBK048578]", "% of control remaining": 106.849},
      {"smiles": "Cc1c(S(=O)(=O)Nc2ccc3nsnc3c2)cnn1-c1ccccc1", "note": "[CBK062229]", "% of control remaining": 107.753},
      {"smiles": "COCCC(=O)NC(Cc1cccs1)c1nccs1", "note": "(centres unmarked) [CBK282180]", "% of control remaining": 148.676},
      {"smiles": "COC1C(O)C(CO)OC1n1cc(I)c(=O)[nH]c1=O", "note": "(centres unmarked) [CBK201211]", "% of control remaining": 75.9633},
      {"smiles": "Cc1c(-n2nnnc2SC(C)c2ccccc2)c(=O)n(-c2ccccc2)n1C", "note": "(centres unmarked) [CBK295651]", "% of control remaining": 117.309},
      {"smiles": "COc1cccc2cc(C(=O)NCc3ccc(Cl)c(Cl)c3)oc12", "note": "[CBK149795]", "% of control remaining": 82.8238},
      {"smiles": "O=C(CSc1ncnc2c1oc1ccccc12)NC1CCCC1", "note": "[CBK287788]", "% of control remaining": 120.682},
      {"smiles": "Cn1c(=O)c2c(-c3ccccc3)onc2n(C)c1=O", "note": "[CBK023569]", "% of control remaining": 99.1115},
      {"smiles": "NC(=O)CN1CC2(CCN(CCCn3c(=O)[nH]c4ccccc43)CC2)c2ccccc21", "note": "[CBK126787]", "% of control remaining": 116.037},
      {"smiles": "Cc1ccc(C(=O)NCCC(=O)Nc2ccccc2C)cc1", "note": "[CBK268569]", "% of control remaining": 90.9246},
      {"smiles": "CC(=O)Nc1ccc(S(=O)(=O)NCCSc2ccc(C)cc2)cc1", "note": "[CBK263563]", "% of control remaining": 85.0068},
      {"smiles": "CCCCn1nccc1NC(=O)NC(C)c1ccncc1", "note": "(centres unmarked) [CBK304840]", "% of control remaining": 104.541},
      {"smiles": "CCNc1nc(-c2ccc(Oc3ccccc3)cc2)cn2ccnc12", "note": "[CBK066467]", "% of control remaining": 177.598},
      {"smiles": "CCN(CC(=O)N1CCN(C(=O)c2ccc(C)cc2)CC1)C(=O)OC", "note": "[CBK027051]", "% of control remaining": 156.432},
      {"smiles": "CCOC1CCCN(C(=O)c2cccnc2Nc2cccc(F)c2)C1", "note": "(centres unmarked) [CBK305307]", "% of control remaining": 114.341},
      {"smiles": "Cc1noc(C)c1Cn1cc(NS(=O)(=O)c2cccs2)cn1", "note": "[CBK044394]", "% of control remaining": 104.858}
    ]}
  ]
}
